Results published in PMC7266993.

Assays:
[1] = molecular target: T1, FLAG–STAG1 D797A, siRNA-resistant transgene (stable, HCT 116 STAG2-502c4) (human) (UniProt Q8WVM7); test: co-IP; FLAG-STAG1 variants stably expressed in HCT 116 STAG2-502c4; anti-FLAG M2 agarose overnight; 50 mM Tris-Cl pH 7.4, 150 mM NaCl, 0.5% NP-40; capillary immunodetection of cohesin ring members
T1 sequence: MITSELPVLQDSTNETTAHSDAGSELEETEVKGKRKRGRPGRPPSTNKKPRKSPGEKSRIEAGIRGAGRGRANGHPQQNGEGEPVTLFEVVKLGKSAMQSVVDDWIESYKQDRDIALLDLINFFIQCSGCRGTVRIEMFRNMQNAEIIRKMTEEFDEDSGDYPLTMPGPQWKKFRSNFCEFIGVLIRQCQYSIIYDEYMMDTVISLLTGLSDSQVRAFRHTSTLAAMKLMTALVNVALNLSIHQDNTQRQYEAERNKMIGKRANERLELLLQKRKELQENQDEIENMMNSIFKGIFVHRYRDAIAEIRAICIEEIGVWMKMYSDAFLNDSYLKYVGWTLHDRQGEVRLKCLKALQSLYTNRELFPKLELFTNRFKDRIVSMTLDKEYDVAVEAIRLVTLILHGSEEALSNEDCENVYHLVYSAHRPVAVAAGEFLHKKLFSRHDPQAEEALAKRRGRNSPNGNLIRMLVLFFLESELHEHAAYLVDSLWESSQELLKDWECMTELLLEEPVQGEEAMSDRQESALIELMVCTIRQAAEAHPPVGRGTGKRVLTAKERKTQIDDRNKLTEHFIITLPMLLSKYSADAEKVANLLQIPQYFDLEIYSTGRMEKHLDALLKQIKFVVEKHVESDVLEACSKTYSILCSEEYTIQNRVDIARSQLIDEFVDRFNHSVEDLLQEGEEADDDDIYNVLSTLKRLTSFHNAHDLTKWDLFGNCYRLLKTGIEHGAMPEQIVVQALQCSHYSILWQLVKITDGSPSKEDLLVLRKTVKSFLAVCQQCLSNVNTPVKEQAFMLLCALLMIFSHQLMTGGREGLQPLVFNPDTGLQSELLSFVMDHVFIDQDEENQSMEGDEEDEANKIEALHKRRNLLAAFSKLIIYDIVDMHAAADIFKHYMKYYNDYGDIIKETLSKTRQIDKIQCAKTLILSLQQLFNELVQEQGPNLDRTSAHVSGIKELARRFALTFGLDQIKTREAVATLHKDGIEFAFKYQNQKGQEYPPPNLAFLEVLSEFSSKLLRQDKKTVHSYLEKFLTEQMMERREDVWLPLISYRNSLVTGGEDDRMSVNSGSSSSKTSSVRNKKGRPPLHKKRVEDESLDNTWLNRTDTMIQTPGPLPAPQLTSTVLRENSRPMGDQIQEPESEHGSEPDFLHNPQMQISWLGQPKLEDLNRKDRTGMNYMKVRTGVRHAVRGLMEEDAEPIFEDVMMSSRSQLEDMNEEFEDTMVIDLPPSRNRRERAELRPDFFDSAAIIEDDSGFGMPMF

[2] = molecular target: T2, FLAG–STAG1 D797K, siRNA-resistant transgene (stable, HCT 116 STAG2-502c4) (human) (UniProt Q8WVM7); test: as above
T2 sequence: T1 sequence with A797K

[3] = molecular target: T3, FLAG–STAG1 wild type, siRNA-resistant transgene (stable, HCT 116 STAG2-502c4) (human) (UniProt Q8WVM7); test: as above
T3 sequence: T1 sequence with A797D

[4] = molecular target: T4, FLAG epitope-tagged STAG1, wild type (transient, HEK293) (human) (UniProt Q8WVM7); test: co-IP; FLAG-STAG1 variants transiently expressed in HEK293, 48 h; anti-FLAG M2 agarose 2 h; 25 mM Tris-HCl pH 7.5, 100 mM KCl, 5 mM MgCl2, 0.2% NP-40, 10% glycerol, benzonase; immunoblot and capillary immunodetection of cohesin subunits
T4 sequence: T1 sequence with A797D

| Substance | binding [1] | binding [2] | binding [3] | binding [4] |
| --- | --- | --- | --- | --- |
| SMC1 (endogenous, HCT 116 STAG2-502c4) (human (endogenous in HCT 116)) | no binding | no binding | binds |  |
| SMC1 (endogenous, HEK293) (human (endogenous in HEK293)) |  |  |  | binds |

Residue numbers refer to the chain shown, from its start. No constants are given. Whether binding was seen depends on the method and setting. In cells and extracts the contact can be indirect. For some of these results: Binding can be weak; no strength is given. Sequences can lack the tags named with a protein.
